The values below come from paper doi:10.1101/2021.04.27.441709.

By UniProt entry, the sequences of proteins in these tests, tags left out.
UniProt P07355: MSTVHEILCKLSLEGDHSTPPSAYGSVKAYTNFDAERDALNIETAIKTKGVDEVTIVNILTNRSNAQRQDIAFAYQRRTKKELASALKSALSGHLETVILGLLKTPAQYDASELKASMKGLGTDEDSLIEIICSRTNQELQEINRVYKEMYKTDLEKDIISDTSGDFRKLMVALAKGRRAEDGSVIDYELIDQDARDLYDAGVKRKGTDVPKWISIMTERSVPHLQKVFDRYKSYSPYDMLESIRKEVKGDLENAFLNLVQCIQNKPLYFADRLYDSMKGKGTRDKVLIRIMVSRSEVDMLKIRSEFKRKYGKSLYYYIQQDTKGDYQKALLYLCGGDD

One assay has as its target T1, ANXA7-Flag (human) (UniProt P20073).
T1 sequence: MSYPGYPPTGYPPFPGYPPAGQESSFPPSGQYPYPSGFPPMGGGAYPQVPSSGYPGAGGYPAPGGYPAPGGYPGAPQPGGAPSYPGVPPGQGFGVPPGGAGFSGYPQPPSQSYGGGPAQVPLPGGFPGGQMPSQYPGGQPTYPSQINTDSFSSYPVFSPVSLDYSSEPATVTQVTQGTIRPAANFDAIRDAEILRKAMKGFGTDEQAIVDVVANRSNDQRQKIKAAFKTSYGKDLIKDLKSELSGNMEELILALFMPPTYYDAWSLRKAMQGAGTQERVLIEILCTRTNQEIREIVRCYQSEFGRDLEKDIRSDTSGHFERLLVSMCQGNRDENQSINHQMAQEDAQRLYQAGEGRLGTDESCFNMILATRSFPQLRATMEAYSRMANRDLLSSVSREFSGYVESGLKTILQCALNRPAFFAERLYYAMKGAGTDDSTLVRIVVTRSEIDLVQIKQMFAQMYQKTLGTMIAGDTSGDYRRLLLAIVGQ
Put plainly: co-IP.

A further assay has as its target ANXA2-Flag (human) (UniProt P07355). The assay is described as follows: co-IP.

Results are given in words; binding and its absence hold for the method and conditions named. In cells and extracts the contact can be indirect. Some binding calls cover weakened binding; strength is not graded here. For some assays here: Tags and fused reporters may be left off the sequences shown.

B1: sorcin (protein, UniProt P30626 1-198)
chain: MAYPGHPGAGGGYYPGGYGGAPGGPAFPGQTQDPLYGYFAAVAGQDGQIDADELQRCLTQSGIAGGYKPFNLETCRLMVSMLDRDMSGTMGFNEFKELWAVLNGWRQHFISFDTDRSGTVDPQELQKALTTMGFRLSPQAVNSIAKRYSTNGKITFDDYIACCVKLRALTDSFRRRDTAQQGVVNFPYDDFIQCVMSV
Turning to B1, in the assay with ANXA7-Flag (human), the binding entry is listed as “binds”.

B2: CHMP4B (in the annexin immunoprecipitates of Fig. 8d) (protein, UniProt Q9H444 1-224)
chain: MSVFGKLFGAGGGKAGKGGPTPQEAIQRLRDTEEMLSKKQEFLEKKIEQELTAAKKHGTKNKRAALQALKRKKRYEKQLAQIDGTLSTIEFQREALENANTNTEVLKNMGYAAKAMKAAHDNMDIDKVDELMQDIADQQELAEEISTAISKPVGFGEEFDEDELMAELEELEQEELDKNLLEISGPETVPLPNVPSIALPSKPAKKKEEEDDDMKELENWAGSM
With B2, the binding result in the assay with ANXA2-Flag (human) and with ANXA7-Flag (human) was “binds” in each case.

B3: grancalcin (protein, UniProt P28676 1-217)
chain: MAYPGYGGGFGNFSIQVPGMQMGQPVPETGPAILLDGYSGPAYSDTYSSAGDSVYTYFSAVAGQDGEVDAEELQRCLTQSGINGTYSPFSLETCRIMIAMLDRDHTGKMGFNAFKELWAALNAWKENFMTVDQDGSGTVEHHELRQAIGLMGYRLSPQTLTTIVKRYSKNGRIFFDDYVACCVKLRALTDFFRKRDHLQQGSANFIYDDFLQGTMAI
As for B3, the binding result in the assay with ANXA2-Flag (human) and with ANXA7-Flag (human) was “binds” each time.
